PubChem BioAssay AID1159578 – Peter MacCallum Cancer Centre, 2015

- Assay: 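siRNA pools altering how lymphatic endothelial cells close a scratch wound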 (primary screen)
- Cells: human lymphatic endothelial cells
- Reagents: siRNA pool against human genes, 40 nM
- Duration: 48 h after transfection
- Read-out: 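High-content imaging of dye-stained cells in a scratch assay measures filled wound area and nuclei per well; duplicate means given as ratio to mock and robust z-score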
- Reading the numbers: migration robust z-score: higher = faster migration into the scratch; migration relative to mock: higher = more scratch area covered than mock; nuclei per well: higher = more cells in the well
- Hit rule: 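Migration changed when robust z exceeds 2 or falls below -2 and mean nuclei number is at least 3300; otherwise not called changed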
- Meaning of the calls: active = migration changed; inactive = no migration change, or too few cells
Shown is an unselected part of about 18,000 reagents tested. About 1,030 of them (5.7%) were called active. 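Inactive calls also include pools with fewer than 3300 nuclei, whose migration was not assessed.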 Raw values vary from plate to plate and are shown uncorrected. A number with no mark means an inactive call.

no.	gene knocked down	PubChem SID	migration robust z-score	migration class with cell-count check	migration relative to mock	nuclei per well, duplicate mean
1	COPS7A (COP9 signalosome subunit 7A)	SID255357364	1.93	migration z between -2 and 2; enough cells	1.38	5915
2	PDZRN4 (PDZ domain containing ring finger 4)	SID255357240	-0.98	migration z between -2 and 2; enough cells	0.62	5810
3	LILRA6 (leukocyte immunoglobulin like receptor A6)	SID255360245	0.92	migration z between -2 and 2; enough cells	1.12	5961
4	EMX1 (empty spiracles homeobox 1)	SID255349499	0.21	migration z between -2 and 2; enough cells	0.84	5787
5	CLEC6A (C-type lectin domain containing 6A)	SID255362098	-0.68	migration z between -2 and 2; enough cells	0.7	5146
6	OR8B3 (olfactory receptor family 8 subfamily B member 3)	SID255365639	-0.05	migration z between -2 and 2; enough cells	0.88	5920
7	FUCA2 (alpha-L-fucosidase 2)	SID255349762	0.54	migration z between -2 and 2; enough cells	0.91	4176
8	SEPTIN3 (septin 3)	SID255358967	-0.7	migration z between -2 and 2; enough cells	0.67	4732
9	ZNF443 (zinc finger protein 443)	SID255354911	-1.58	migration z between -2 and 2; enough cells	0.48	4913
10	ACSL3 (acyl-CoA synthetase long chain family member 3)	SID255349620	-0.21	migration z between -2 and 2; enough cells	0.76	4760
11	TUBB2A (tubulin beta 2A class IIa)	SID255353001	-2.64 (active)	migration z below -2; enough cells	0.3	6326
12	GC (GC vitamin D binding protein)	SID255349848	-0.06	migration z between -2 and 2; enough cells	0.8	5473
13	IPO7 (importin 7)	SID255355153	-1.01	migration z between -2 and 2; enough cells	0.61	7086
14	MAPK14 (mitogen-activated protein kinase 14)	SID255349111	0.52	migration z between -2 and 2; enough cells	0.9	5248
15	TMEM87B (transmembrane protein 87B)	SID255361569	0.76	migration z between -2 and 2; enough cells	1.08	6277
16	SMARCD3 (SWI/SNF related BAF chromatin remodeling complex subunit D3)	SID255352524	-0.83	migration z between -2 and 2; enough cells	0.64	3997
17	RPS6KA6 (ribosomal protein S6 kinase A6)	SID255357033	0.54	migration z between -2 and 2; enough cells	0.91	4965
18	HDAC9 (histone deacetylase 9)	SID255354511	-0.23	migration z between -2 and 2; enough cells	0.82	5642
19	POLR1A (RNA polymerase I subunit A)	SID255356528	-0.05	migration z between -2 and 2; enough cells	0.8	5010
20	SNURF (SNRPN upstream open reading frame)	SID255353923	2.03 (active)	migration z above 2; enough cells	1.41	8568
21	CFAP36 (cilia and flagella associated protein 36)	SID255362168	-0.65	migration z between -2 and 2; enough cells	0.72	4873
22	RPN1 (ribophorin I)	SID255352203	-1.94	migration z between -2 and 2; enough cells	0.43	3340
23	KRT73 (keratin 73)	SID255364945	-2.13 (active)	migration z below -2; enough cells	0.33	5790
24	CRTC3 (CREB regulated transcription coactivator 3)	SID255359999	-3.26 (active)	migration z below -2; enough cells	0.02	3607
25	ATP5PD (ATP synthase peripheral stalk subunit d)	SID255355111	0.68	migration z between -2 and 2; enough cells	0.94	6364
26	TMEM53 (transmembrane protein 53)	SID255360350	1.7	migration z between -2 and 2; enough cells	1.33	5817
27	FAM216B (family with sequence similarity 216 member B)	SID255363234	0.22	migration z between -2 and 2; enough cells	0.94	6258
28	ZNF438 (zinc finger protein 438)	SID255364255	-1.61	migration z between -2 and 2; enough cells	0.47	5974
29	CCDC197 (coiled-coil domain containing 197)	SID255364525	-0.27	migration z between -2 and 2; enough cells	0.82	5369
30	CCNQ (cyclin Q)	SID255361973	-0.24	migration z between -2 and 2; enough cells	0.82	6796
31	SCRT1 (scratch family transcriptional repressor 1)	SID255361014	-1.9	migration z between -2 and 2; enough cells	0.39	4928
32	MAB21L3 (mab-21 like 3)	SID255362731	0.16	migration z between -2 and 2; enough cells	0.93	4708
33	PRPH2 (peripherin 2)	SID255352080	-0.39	migration z between -2 and 2; enough cells	0.73	5844
34	LAGE3 (L antigen family member 3)	SID255353442	-0.73	migration z between -2 and 2; enough cells	0.7	5185
35	RNASEH1 (ribonuclease H1)	SID255364400	0.76	migration z between -2 and 2; enough cells	0.95	6374
36	STK3 (serine/threonine kinase 3)	SID255352676	-0.13	migration z between -2 and 2; enough cells	0.78	6630
37	NUP35 (nucleoporin 35)	SID255362831	-0.26	migration z between -2 and 2; enough cells	0.82	5384
38	ADRA2A (adrenoceptor alpha 2A)	SID255348211	0.06	migration z between -2 and 2; enough cells	0.82	5708
39	PALD1 (phosphatase domain containing paladin 1)	SID255356944	0.83	migration z between -2 and 2; enough cells	0.96	4486
40	RANBP1 (RAN binding protein 1)	SID255352036	0.02	migration z between -2 and 2; enough cells	0.89	5590
41	RNF169 (ring finger protein 169)	SID255364449	1.25	migration z between -2 and 2; enough cells	1.04	6484
42	RNF130 (ring finger protein 130)	SID255358889	0.18	migration z between -2 and 2; enough cells	0.84	4772
43	KLF5 (KLF transcription factor 5)	SID255348589	0.18	migration z between -2 and 2; enough cells	0.93	7148
44	FOXJ1 (forkhead box J1)	SID255349708	-0.34	migration z between -2 and 2; enough cells	0.74	5216
45	COP1 (COP1 E3 ubiquitin ligase)	SID255359896	0.62	migration z between -2 and 2; enough cells	0.92	6622
46	TFIP11 (tuftelin interacting protein 11)	SID255356440	-1.78	migration z between -2 and 2; enough cells	0.42	5572
47	ZNF331 (zinc finger protein 331)	SID255358642	-0.2	migration z between -2 and 2; enough cells	0.83	5572
48	NAP1L5 (nucleosome assembly protein 1 like 5)	SID255364608	1.35	migration z between -2 and 2; enough cells	1.23	5606
49	IFT46 (intraflagellar transport 46)	SID255359159	0.43	migration z between -2 and 2; enough cells	1	6658
50	CCL16 (C-C motif chemokine ligand 16)	SID255352330	1.48	migration z between -2 and 2; enough cells	1.27	6799
51	TUBA3E (tubulin alpha 3e)	SID255362152	-0.82	migration z between -2 and 2; enough cells	0.68	4114
52	GAR1 (GAR1 ribonucleoprotein)	SID255358005	1.48	migration z between -2 and 2; enough cells	1.09	4974
53	TRMO (tRNA methyltransferase O)	SID255357769	0.86	migration z between -2 and 2; enough cells	1.11	5784
54	NMU (neuromedin U)	SID255355406	-0.14	migration z between -2 and 2; enough cells	0.84	5996
55	OR51B5 (olfactory receptor family 51 subfamily B member 5)	SID255364622	1.56	migration z between -2 and 2; enough cells	1.29	5276
56	TOR1AIP2 (torsin 1A interacting protein 2)	SID255359857	-1.74	migration z between -2 and 2; enough cells	0.44	5514
57	TOR1AIP2 (torsin 1A interacting protein 2)	SID255363791	-0.88	migration z between -2 and 2; enough cells	0.66	5750

Reagents listed above marked active (4):
gene knocked down	PubChem SID	migration robust z-score	migration class with cell-count check	migration relative to mock	nuclei per well, duplicate mean
TUBB2A (tubulin beta 2A class IIa)	SID255353001	-2.64 (active)	migration z below -2; enough cells	0.3	6326
SNURF (SNRPN upstream open reading frame)	SID255353923	2.03 (active)	migration z above 2; enough cells	1.41	8568
KRT73 (keratin 73)	SID255364945	-2.13 (active)	migration z below -2; enough cells	0.33	5790
CRTC3 (CREB regulated transcription coactivator 3)	SID255359999	-3.26 (active)	migration z below -2; enough cells	0.02	3607
